Data as given in publication doi:10.1101/2020.02.01.930172.
Results are given in words; binding and its absence hold for the method and conditions named. For some of these results: In cells and extracts the contact can be indirect. Some entries that bind do so weakly or less than the wild type. For some of these results: Sequences can lack the tags named with a protein. Blank lines part the entries; values can stand above or below the binder they belong to.

Experiments:
[1] = molecular target: GST-SIRT6 (human), Q8N6T7; experiment: pull-down; details: remark: other sources report otherwise
[2] = molecular target: GST-SIRT6 (human), Q8N6T7; experiment: pull-down; details: remark: other sources report otherwise; remark: listed apart in the source
[3] = molecular target: endogenous SIRT6 (human (endogenous in HEK293 and HeLa)), Q8N6T7; experiment: co-IP; details: remark: other sources report otherwise
[4] = molecular target: His-SIRT1 (UniProt Q96EB6); experiment: pull-down

binding [1]: binds | binding [2]: binds
B1: His-SIRT1, Q96EB6 (protein)
chain: MADEAALALQPGGSPSAAGADREAASSPAGEPLRKRPRRDGPGLERSPGEPGGAAPEREVPAAARGCPGAAAAALWREAEAEAAAAGGEQEAQATAAAGEGDNGPGLQGPSREPPLADNLYDEDDDDEGEEEEEAAAAAIGYRDNLLFGDEIITNGFHSCESDEEDRASHASSSDWTPRPRIGPYTFVQQHLMIGTDPRTILKDLLPETIPPPELDDMTLWQIVINILSEPPKRKKRKDINTIEDAVKLLQECKKIIVLTGAGVSVSCGIPDFRSRDGIYARLAVDFPDLPDPQAMFDIEYFRKDPRPFFKFAKEIYPGQFQPSLCHKFIALSDKEGKLLRNYTQNIDTLEQVAGIQRIIQCHGSFATASCLICKYKVDCEAVRGDIFNQVVPRCPRCPADEPLAIMKPEIVFFGENLPEQFHRAMKYDKDEVDLLIVIGSSLKVRPVALIPSSIPHEVPQILINREPLPHLHFDVELLGDCDVIINELCHRLGGEYAKLCCNPVKLSEITEKPPRTQKELAYLSELPPTPLHVSEDSSSPERTSPPDSSVIVTLLDQAAKSNDDLDVSESKGCMEEKPQEVQTSRNVESIAEQMENPDLKNVGSSTGEKNERTSVAGTVRKCWPNRVAKEQISRRLDGNQYLFLPPNRYIFHGAEVYSDSEDDVLSSSSCGSNSDSGTCQSPSLEEPMEDESEIEEFYNGLEDEPDVPERAGGAGFGTDGDDQEAINEAISVKQEVTDMNYPSNKS

binding [3]: binds
B2: endogenous SIRT1, Q96EB6 (protein)
chain: B1 chain

binding [4]: binds
Binder: PEELERKVWELARL (acetyl-lysine at SIRT6 K33 (K(ac), seventh residue of the peptide)) [K33ac peptide, a 14-aa peptide containing acetylated SIRT6 K33]
